Results deposited as PubChem BioAssay AID1259425 (University of Nebraska Medical Center, 2018).

Aim: 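Seek colon cancer weak points whose silencing resembles KSR1 loss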 (primary screen)
System: HCT116 human colon cancer cells
Reagents: siRNA pool against human genes, 50 nM siRNA
Detection: 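mRNA of six signature genes measured together by branched-DNA assay after 50 nM siRNA pool, blank removed, divided by geometric mean of two housekeeping genes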
Reading the numbers: BNIP3L mRNA: higher = more BNIP3L transcript after knockdown
Here is one part, drawn at random, of about 14,000 deposited reagents. Not all columns of the deposit are shown. The record does not give: the time to read-out.

gene symbol	BNIP3L mRNA, set 1
DDX20 (DEAD-box helicase 20)	0.112
ARHGAP11A (Rho GTPase activating protein 11A)	0.252
FBXO30 (F-box protein 30)	0.552
PRXL2A (peroxiredoxin like 2A)	0.114
TRPC5	0.0901
ANAPC5 (anaphase promoting complex subunit 5)	0.0648
KCND2 (potassium voltage-gated channel subfamily D member 2)	0.0677
TRPM8	0.0694
WDR6 (WD repeat domain 6)	0.0774
DAPK1 (death associated protein kinase 1)	0.179
RASGRF2 (Ras protein specific guanine nucleotide releasing factor 2)	0.0791
CFL2 (cofilin 2)	0.107
FTL (ferritin light chain)	0.108

2 successive records already listed, quoted:
gene symbol	BNIP3L mRNA, set 1
RASGRF2 (Ras protein specific guanine nucleotide releasing factor 2)	0.0791
CFL2 (cofilin 2)	0.107

Next records follow:
gene symbol	BNIP3L mRNA, set 1
RXFP1 (relaxin family peptide receptor 1)	0.096
BAG3 (BAG cochaperone 3)	0.139
GPHN (gephyrin)	0.0835
MUC5AC (mucin 5AC, oligomeric mucus/gel-forming)	0.132
TCN1 (transcobalamin 1)	0.077
DHRS3 (dehydrogenase/reductase 3)	0.104
CCDC170 (coiled-coil domain containing 170)	0.117
